# From the supplement of paper PMC10849652
# Amino acid sequences for entries named in this document (tags omitted). A change or cut given only in a name is not applied to a line headed by its entry.
# UniProt P67809, whole entry, looked up: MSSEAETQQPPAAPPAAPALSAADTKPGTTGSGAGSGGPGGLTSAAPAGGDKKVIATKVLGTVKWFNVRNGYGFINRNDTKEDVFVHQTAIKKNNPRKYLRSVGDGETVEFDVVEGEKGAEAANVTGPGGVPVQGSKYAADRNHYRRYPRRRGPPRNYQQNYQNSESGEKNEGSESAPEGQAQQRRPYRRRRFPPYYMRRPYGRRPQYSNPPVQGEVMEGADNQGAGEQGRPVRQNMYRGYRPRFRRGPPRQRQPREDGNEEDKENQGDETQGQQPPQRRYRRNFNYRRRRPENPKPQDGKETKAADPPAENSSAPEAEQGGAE
# UniProt O43670: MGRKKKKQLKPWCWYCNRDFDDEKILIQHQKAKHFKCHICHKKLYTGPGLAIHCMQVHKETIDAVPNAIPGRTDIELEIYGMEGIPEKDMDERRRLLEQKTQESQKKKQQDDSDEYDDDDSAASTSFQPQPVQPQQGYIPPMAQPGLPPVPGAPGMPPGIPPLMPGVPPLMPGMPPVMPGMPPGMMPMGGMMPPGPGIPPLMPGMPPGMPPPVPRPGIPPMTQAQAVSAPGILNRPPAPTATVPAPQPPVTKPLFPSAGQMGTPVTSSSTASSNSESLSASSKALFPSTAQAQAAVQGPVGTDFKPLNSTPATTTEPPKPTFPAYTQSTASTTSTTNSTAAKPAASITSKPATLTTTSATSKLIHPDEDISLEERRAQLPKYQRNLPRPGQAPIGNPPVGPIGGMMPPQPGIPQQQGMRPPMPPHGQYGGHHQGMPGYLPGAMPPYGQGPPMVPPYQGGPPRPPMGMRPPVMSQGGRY
# UniProt O95365: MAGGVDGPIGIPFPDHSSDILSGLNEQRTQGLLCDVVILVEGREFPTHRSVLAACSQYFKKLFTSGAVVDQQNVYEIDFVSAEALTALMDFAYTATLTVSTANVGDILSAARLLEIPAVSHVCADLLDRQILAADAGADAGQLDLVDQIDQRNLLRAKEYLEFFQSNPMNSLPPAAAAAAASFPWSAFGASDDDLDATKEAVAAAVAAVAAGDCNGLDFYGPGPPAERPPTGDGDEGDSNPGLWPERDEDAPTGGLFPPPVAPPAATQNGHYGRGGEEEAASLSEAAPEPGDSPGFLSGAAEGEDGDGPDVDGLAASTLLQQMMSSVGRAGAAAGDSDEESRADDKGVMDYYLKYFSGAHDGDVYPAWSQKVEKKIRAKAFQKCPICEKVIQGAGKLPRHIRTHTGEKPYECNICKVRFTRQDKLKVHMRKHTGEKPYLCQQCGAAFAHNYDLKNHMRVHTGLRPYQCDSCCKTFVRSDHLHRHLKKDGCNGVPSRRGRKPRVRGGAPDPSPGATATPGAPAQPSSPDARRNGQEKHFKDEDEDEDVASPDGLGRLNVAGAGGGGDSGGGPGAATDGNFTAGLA
# UniProt O95159: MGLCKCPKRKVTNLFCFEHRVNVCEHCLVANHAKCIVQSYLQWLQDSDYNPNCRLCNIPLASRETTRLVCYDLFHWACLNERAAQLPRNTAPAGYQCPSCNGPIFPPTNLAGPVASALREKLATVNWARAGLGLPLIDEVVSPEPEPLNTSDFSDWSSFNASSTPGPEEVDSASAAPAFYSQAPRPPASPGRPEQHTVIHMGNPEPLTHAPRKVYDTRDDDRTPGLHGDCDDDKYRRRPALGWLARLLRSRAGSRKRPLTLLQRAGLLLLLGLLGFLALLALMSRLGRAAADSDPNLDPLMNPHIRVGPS
# UniProt Q6FIF0: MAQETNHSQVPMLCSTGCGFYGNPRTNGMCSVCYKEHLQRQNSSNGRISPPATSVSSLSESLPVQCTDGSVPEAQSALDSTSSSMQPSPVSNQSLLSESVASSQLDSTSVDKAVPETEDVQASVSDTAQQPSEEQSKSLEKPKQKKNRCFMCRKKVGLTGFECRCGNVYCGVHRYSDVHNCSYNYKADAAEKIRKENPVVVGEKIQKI
# UniProt P16989, whole entry, looked up: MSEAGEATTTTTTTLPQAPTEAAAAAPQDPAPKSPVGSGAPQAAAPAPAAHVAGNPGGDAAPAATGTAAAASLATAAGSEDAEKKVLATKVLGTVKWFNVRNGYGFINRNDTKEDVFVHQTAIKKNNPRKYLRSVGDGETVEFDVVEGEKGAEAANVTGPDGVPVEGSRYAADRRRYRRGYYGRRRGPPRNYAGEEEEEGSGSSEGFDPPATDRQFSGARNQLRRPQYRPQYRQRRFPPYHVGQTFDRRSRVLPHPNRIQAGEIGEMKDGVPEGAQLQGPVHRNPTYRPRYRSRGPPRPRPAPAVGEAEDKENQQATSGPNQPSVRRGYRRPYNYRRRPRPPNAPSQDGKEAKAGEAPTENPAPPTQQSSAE
# UniProt Q8WV99: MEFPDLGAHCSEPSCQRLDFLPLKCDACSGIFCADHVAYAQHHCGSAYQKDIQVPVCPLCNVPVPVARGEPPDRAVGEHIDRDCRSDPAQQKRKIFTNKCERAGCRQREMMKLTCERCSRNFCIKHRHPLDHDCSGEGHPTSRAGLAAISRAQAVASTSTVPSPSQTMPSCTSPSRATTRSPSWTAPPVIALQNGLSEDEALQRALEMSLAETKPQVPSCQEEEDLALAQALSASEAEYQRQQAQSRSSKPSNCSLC
# UniProt Q86WB0: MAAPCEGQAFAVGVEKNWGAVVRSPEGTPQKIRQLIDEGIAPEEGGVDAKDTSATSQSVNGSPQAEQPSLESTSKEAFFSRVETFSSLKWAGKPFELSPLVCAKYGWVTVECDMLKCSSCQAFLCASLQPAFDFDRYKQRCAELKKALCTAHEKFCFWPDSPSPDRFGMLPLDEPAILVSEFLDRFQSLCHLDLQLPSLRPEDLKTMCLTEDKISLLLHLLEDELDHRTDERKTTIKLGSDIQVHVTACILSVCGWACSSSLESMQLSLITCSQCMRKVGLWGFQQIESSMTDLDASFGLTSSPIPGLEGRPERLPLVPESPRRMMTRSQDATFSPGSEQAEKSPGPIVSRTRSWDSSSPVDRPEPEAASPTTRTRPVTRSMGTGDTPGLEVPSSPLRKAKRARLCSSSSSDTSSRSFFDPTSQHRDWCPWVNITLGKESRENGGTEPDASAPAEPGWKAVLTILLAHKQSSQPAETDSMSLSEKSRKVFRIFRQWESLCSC
# UniProt Q14202: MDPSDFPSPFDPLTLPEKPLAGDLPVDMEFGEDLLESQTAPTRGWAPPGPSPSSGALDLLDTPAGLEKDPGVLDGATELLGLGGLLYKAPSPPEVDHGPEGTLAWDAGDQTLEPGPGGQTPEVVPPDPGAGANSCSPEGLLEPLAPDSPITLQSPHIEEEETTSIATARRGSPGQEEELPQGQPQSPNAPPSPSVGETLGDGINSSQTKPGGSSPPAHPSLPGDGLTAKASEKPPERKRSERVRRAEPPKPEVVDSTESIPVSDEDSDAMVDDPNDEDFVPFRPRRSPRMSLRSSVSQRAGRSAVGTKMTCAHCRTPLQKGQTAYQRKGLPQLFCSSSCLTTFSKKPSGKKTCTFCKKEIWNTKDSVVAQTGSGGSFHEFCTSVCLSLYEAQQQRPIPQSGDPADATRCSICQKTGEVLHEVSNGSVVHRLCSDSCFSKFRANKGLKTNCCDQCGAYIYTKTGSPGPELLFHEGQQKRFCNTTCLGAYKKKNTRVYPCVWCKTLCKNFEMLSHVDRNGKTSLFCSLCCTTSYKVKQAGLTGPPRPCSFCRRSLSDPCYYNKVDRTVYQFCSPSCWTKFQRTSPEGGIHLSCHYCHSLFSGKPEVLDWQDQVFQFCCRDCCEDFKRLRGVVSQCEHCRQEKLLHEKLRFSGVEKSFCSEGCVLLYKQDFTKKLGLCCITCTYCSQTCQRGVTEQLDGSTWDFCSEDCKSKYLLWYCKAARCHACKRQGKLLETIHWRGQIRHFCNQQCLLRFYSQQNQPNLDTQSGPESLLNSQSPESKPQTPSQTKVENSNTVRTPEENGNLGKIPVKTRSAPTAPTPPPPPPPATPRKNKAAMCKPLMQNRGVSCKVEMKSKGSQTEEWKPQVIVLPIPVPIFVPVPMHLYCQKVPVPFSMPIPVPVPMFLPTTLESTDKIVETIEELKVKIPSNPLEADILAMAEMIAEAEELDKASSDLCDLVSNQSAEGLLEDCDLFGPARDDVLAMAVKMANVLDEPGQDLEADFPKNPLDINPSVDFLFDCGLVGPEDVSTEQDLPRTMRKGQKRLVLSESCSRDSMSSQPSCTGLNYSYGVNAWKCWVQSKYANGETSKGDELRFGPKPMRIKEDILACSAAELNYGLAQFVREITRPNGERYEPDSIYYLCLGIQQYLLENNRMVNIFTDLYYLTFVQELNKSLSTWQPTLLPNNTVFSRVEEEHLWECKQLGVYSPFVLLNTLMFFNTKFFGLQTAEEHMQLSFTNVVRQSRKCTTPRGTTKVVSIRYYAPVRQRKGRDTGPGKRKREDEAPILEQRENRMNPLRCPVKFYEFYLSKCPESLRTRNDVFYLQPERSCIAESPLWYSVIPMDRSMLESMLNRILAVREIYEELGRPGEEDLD
# The other results are listed elsewhere or left out.
# Columns and labels:
# Assay in all cases: log2 fold change, soluble protein after heating vs DMSO (PISA); higher = thermal stabilisation; K562 cells, 10 uM, 30 min; active = over 0.2 and 3.5 SD of the protein, either way, in both replicates (recomputed)
# [1] = compound: CC[C@@H]1C(=O)N(C)c2cnc(Nc3ccc(C(=O)NC4CCN(C)CC4)cc3OC)nc2N1C1CCCC1
# Outline: (§1)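 Soluble protein was quantified by TMTpro 16plex LC-MS/MS after channel sums were equalised. It was obtained as the supernatant after 21,000xg for 90 min from pooled aliquots of K562 cells (2×10^6 cells/mL, 10 μM compound, 30 min) heated for 3 min across 48°C-58°C and extracted in PBS with 0.5% NP-40 at 4°C. Thermal stability values are relative to control samples and come from duplicates. They are given as log2 fold changes.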
# volasertib = compound: CC[C@@H]1C(=O)N(C)c2cnc(Nc3ccc(C(=O)N[C@H]4CC[C@H](N5CCN(CC6CC6)CC5)CC4)cc3OC)nc2N1C(C)C [volasertib]
# Outline: as §1
# [2] = compound: CC[C@H](C)N1C=C(C2=C(C=C(C=C21)C3=CN=C(C=C3)N4CCNCC4)C(=O)NCC5=C(C=C(NC5=O)C)C)C
# Outline: as §1
# epoxomicin = compound: CC[C@H](C)[C@@H](C(=O)N[C@@H]([C@@H](C)O)C(=O)N[C@@H](CC(C)C)C(=O)[C@]1(CO1)C)NC(=O)[C@H]([C@@H](C)CC)N(C)C(=O)C [epoxomicin]
# Outline: as §1
# [3] = compound: CCn1cc(-c2ccnc3[nH]c(-c4cccc(CN(C)C)c4)cc23)c(-c2ccc(NC(=O)N(C)C)cc2)n1
# Outline: as §1
# [4] = compound: CN(C)CC(=O)Nc1ccc2[nH]c(=O)c3ccccc3c2c1
# Outline: as §1
# [5] = compound: CN1C2=C(C3=C1C(=O)N(N=C3)CC4=CC(=CC=C4)N)SC(=C2)S(=O)C
# Outline: as §1
# [6] = compound: CN1CCC(CNc2ccc3ncc(-c4cccc(OC(F)(F)F)c4)n3n2)CC1
# Outline: as §1
# saracatinib = compound: CN1CCN(CCOc2cc(OC3CCOCC3)c3c(Nc4c(Cl)ccc5c4OCO5)ncnc3c2)CC1 [saracatinib]
# Outline: as §1
# sotrastaurin = compound: CN1CCN(c2nc(C3=C(c4c[nH]c5ccccc45)C(=O)NC3=O)c3ccccc3n2)CC1 [sotrastaurin]
# Outline: as §1
# Tubastatin A = compound: CN1CCc2c(c3ccccc3n2Cc2ccc(C(=O)NO)cc2)C1 [Tubastatin A]
# Outline: as §1
# [7] = compound: CNC(=O)C1=CC=CC=C1NC2=NC(=NC=C2Cl)NC3=C(C=C(C=C3)N4CCOCC4)OC
# Outline: as §1
# defactinib = compound: CNC(=O)c1ccc(Nc2ncc(C(F)(F)F)c(NCc3nccnc3N(C)S(C)(=O)=O)n2)cc1 [defactinib]
# Outline: as §1
# rucaparib = compound: CNCc1ccc(-c2[nH]c3cc(F)cc4c3c2CCNC4=O)cc1 [rucaparib]
# Outline: as §1
# [8] = compound: CNc1nc(-c2ccc3c(N)n[nH]c3c2)cc(N2C[C@@H](C(=O)NC3CCCCC3)CC[C@H]2C)n1
# Outline: as §1
# encorafenib = compound: COC(=O)N[C@@H](C)CNc1nccc(-c2cn(C(C)C)nc2-c2cc(Cl)cc(NS(C)(=O)=O)c2F)n1 [encorafenib]
# Outline: as §1
# [9] = compound: COC(=O)[C@H](CCSC)NC(=O)C1=C(C=C(C=C1)NC[C@H](CS)N)C2=CC=CC=C2
# Outline: as §1
# [10] = compound: CCn1c(C(=O)N(C2CC2)C2CC2)cc2c3c(ncn3C)c(Nc3cc(C)n(C)n3)nc21
# Outline: as §1
# rosiglitazone = compound: CN(CCOC1=CC=C(C=C1)C[C@H]2C(=O)NC(=O)S2)C3=CC=CC=N3 (racemic) [rosiglitazone]
# Outline: as §1
# alvocidib = compound: CN1CC[C@H](c2c(O)cc(O)c3c(=O)cc(-c4ccccc4Cl)oc23)[C@H](O)C1 [alvocidib]
# Outline: as §1
Target,log2 fold change [1],log2 fold change (volasertib),log2 fold change [2],log2 fold change (epoxomicin),log2 fold change [3],log2 fold change [4],log2 fold change [5],log2 fold change [6],log2 fold change (saracatinib),log2 fold change (sotrastaurin),log2 fold change (Tubastatin A),log2 fold change [7],log2 fold change (defactinib),log2 fold change (rucaparib),log2 fold change [8],log2 fold change (encorafenib),log2 fold change [9],log2 fold change [10],log2 fold change (rosiglitazone),log2 fold change (alvocidib)
YBX1 (UniProt P67809),inactive: 0.262,inactive: 0.508,inactive: -0.063,inactive: -0.191,inactive: 0.249,inactive: -0.134,inactive: 0.183,inactive: 0.348,inactive: -0.027,inactive: 0.016,inactive: 0.022,inactive: 0.01,inactive: 0.301,inactive: 0.253,inactive: 0.044,inactive: 0.041,inactive: 0.113,–,–,–
ZNF207 isoform 2 (UniProt O43670),inactive: 0.135,inactive: -0.049,inactive: -0.006,inactive: 0.044,inactive: 0.022,inactive: 0.069,inactive: -0.035,inactive: -0.173,inactive: -0.133,inactive: -0.057,inactive: 0.013,inactive: 0.06,inactive: -0.083,inactive: -0.078,inactive: 0.054,inactive: 0.005,inactive: -0.114,inactive: 0.126,inactive: 0.054,inactive: 0.016
ZBTB7A (UniProt O95365),inactive: 0.082,inactive: 0.208,inactive: 0.081,inactive: -0.023,–,–,inactive: 0.224,–,inactive: -0.024,inactive: -0.054,inactive: 0.171,inactive: 0.245,–,inactive: -0.001,inactive: -0.09,inactive: 0.05,–,inactive: 0.056,inactive: 0.058,inactive: 0.18
ZFPL1 (UniProt O95159),inactive: -0.027,inactive: -0.088,inactive: -0.013,inactive: 0.134,inactive: 0.032,inactive: 0,inactive: -0.031,inactive: -0.085,inactive: 0.016,inactive: 0.003,inactive: -0.025,inactive: 0.061,inactive: -0.083,inactive: 0.021,inactive: -0.031,inactive: -0.026,inactive: -0.007,–,–,–
ZFAND6 (UniProt Q6FIF0),inactive: 0.058,inactive: 0.09,inactive: -0.05,inactive: 0.051,inactive: -0.009,inactive: -0.052,inactive: -0.003,inactive: -0.037,inactive: -0.035,inactive: 0.13,inactive: 0.144,inactive: -0.015,inactive: -0.045,active: -0.241,inactive: -0.017,inactive: -0.019,inactive: 0.061,–,–,–
YBX3 isoform 2 (UniProt P16989),inactive: 0.371,inactive: 0.252,inactive: -0.1,inactive: -0.241,–,inactive: -0.201,inactive: 0.247,–,inactive: 0.03,inactive: 0.065,inactive: 0.006,inactive: 0.039,inactive: 0.283,inactive: 0.258,inactive: 0.071,inactive: -0.088,inactive: 0.166,inactive: 0.049,inactive: -0.154,inactive: 0.342
ZFAND2B (UniProt Q8WV99),inactive: 0.066,inactive: 0.067,inactive: 0.013,inactive: -0.131,inactive: 0.244,inactive: -0.089,inactive: -0.018,inactive: -0.024,inactive: 0.036,inactive: 0.136,inactive: 0.002,inactive: 0.029,inactive: 0.01,inactive: -0.017,inactive: 0.016,inactive: 0.01,inactive: 0.09,inactive: -0.045,inactive: 0.009,inactive: 0.012
ZC3HC1 (UniProt Q86WB0),inactive: -0.163,active: -0.579,inactive: 0.164,inactive: 0.1,inactive: -0.125,inactive: 0.089,inactive: -0.135,active: -0.402,inactive: 0.024,inactive: -0.178,inactive: 0.07,inactive: 0.067,inactive: -0.227,inactive: -0.047,inactive: 0.104,inactive: 0.05,inactive: -0.093,–,–,–
ZMYM3 (UniProt Q14202),inactive: 0.015,inactive: -0.077,inactive: 0.055,inactive: -0.033,inactive: 0.018,inactive: -0.067,inactive: -0.023,inactive: 0.035,inactive: 0.098,inactive: 0.027,inactive: -0.028,inactive: 0,inactive: -0.013,inactive: 0.049,inactive: -0.004,inactive: -0.032,inactive: 0.035,–,–,–
